{
  "sequences": {"note": "Sequences of proteins named here, by UniProt entry; tags and fusion partners are left off.", "UniProt Q94AN4": "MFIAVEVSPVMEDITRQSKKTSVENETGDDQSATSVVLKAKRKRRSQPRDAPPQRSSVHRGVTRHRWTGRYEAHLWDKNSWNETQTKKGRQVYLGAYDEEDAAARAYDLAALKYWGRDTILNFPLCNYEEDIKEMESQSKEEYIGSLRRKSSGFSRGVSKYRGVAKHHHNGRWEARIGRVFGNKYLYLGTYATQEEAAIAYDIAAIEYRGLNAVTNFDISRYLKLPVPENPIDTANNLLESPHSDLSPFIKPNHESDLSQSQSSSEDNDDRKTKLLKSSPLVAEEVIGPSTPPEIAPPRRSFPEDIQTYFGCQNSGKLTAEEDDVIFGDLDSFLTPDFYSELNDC"},
  "source": "paper PMC7903899",
  "binders": {"B1": {"name": "TCP16, yeast two-hybrid fusion (protein, UniProt Q9M1U4 1-165)", "chain": "MDSKNGINNSQKARRTPKDRHLKIGGRDRRIRIPPSVAPQLFRLTKELGFKTDGETVSWLLQNAEPAIFAATGHGVTTTSNEDIQPNRNFPSYTFNGDNISNNVFPCTVVNTGHRQMVFPVSTMTDHAPSTNYSTISDNYNSTFNGNATASDTTSAATTTATTTV"}, "B2": {"name": "TCP16, HIS fusion (protein, UniProt Q9M1U4 1-165)", "chain": "MDSKNGINNSQKARRTPKDRHLKIGGRDRRIRIPPSVAPQLFRLTKELGFKTDGETVSWLLQNAEPAIFAATGHGVTTTSNEDIQPNRNFPSYTFNGDNISNNVFPCTVVNTGHRQMVFPVSTMTDHAPSTNYSTISDNYNSTFNGNATASDTTSAATTTATTTV"}, "B3": {"name": "Armadillo BTB Arabidopsis protein 1 (ABAP1), endogenous (protein, UniProt B7U179 1-737)", "chain": "MIISKSFKAPLKFSVKSSTAPVISNHPPMENHPKRQRTTRLAARNLKRKLSHNTDGAPIVTQLIDIDDEPIDLVVAIRRHVEVLNSSFSDPDFDHEAVKEAAADIADLAKIDENVEIIVENGAIPALVRYLESPLVVCGNVPKSCEHKLEKDCALALGLIAAIQPGYQQLIVDAGAIVPTVKLLKRRGECGECMFANAVIRRAADIITNIAHDNPRIKTNIRVEGGIAPLVELLNFPDVKVQRAAAGALRTVSFRNDENKSQIVELNALPTLVLMLQSQDSTVHGEAIGAIGNLVHSSPDIKKEVIRAGALQPVIGLLSSTCLETQREAALLIGQFAAPDSDCKVHIAQRGAITPLIKMLESSDEQVVEMSAFALGRLAQDAHNQAGIAHRGGIISLLNLLDVKTGSVQHNAAFALYGLADNEENVADFIKAGGIQKLQDDNFTVQPTRDCVVRTLKRLQNKIHGPVLNQLLYLMRTAEKTVQIRIALALAHLCDPKDGKLIFIDNNGVEFLLELLYFSSNKQQRYSSSALYELAKKATSFAPEDSAPCSPTQQVFLGEKFVNNPTMSDVTFLIDGKQFYAHKIGLVASSDIFRAMFDGLYKERNAQNVEIPNIRWEVFELMMKFIYSGRINIAKHLAKDLLVAADQYLLEGLKRQCEYTIAQEICLDNIPEMYELADTFNASALRRACTLFVLEHFTKLSSQLWFAKFVKQIIPEIRSYMTDILTRPVEASPPTVV"}, "B4": {"name": "Armadillo BTB Arabidopsis protein 1 (ABAP1), GST fusion (protein, UniProt B7U179 1-737)", "chain": "MIISKSFKAPLKFSVKSSTAPVISNHPPMENHPKRQRTTRLAARNLKRKLSHNTDGAPIVTQLIDIDDEPIDLVVAIRRHVEVLNSSFSDPDFDHEAVKEAAADIADLAKIDENVEIIVENGAIPALVRYLESPLVVCGNVPKSCEHKLEKDCALALGLIAAIQPGYQQLIVDAGAIVPTVKLLKRRGECGECMFANAVIRRAADIITNIAHDNPRIKTNIRVEGGIAPLVELLNFPDVKVQRAAAGALRTVSFRNDENKSQIVELNALPTLVLMLQSQDSTVHGEAIGAIGNLVHSSPDIKKEVIRAGALQPVIGLLSSTCLETQREAALLIGQFAAPDSDCKVHIAQRGAITPLIKMLESSDEQVVEMSAFALGRLAQDAHNQAGIAHRGGIISLLNLLDVKTGSVQHNAAFALYGLADNEENVADFIKAGGIQKLQDDNFTVQPTRDCVVRTLKRLQNKIHGPVLNQLLYLMRTAEKTVQIRIALALAHLCDPKDGKLIFIDNNGVEFLLELLYFSSNKQQRYSSSALYELAKKATSFAPEDSAPCSPTQQVFLGEKFVNNPTMSDVTFLIDGKQFYAHKIGLVASSDIFRAMFDGLYKERNAQNVEIPNIRWEVFELMMKFIYSGRINIAKHLAKDLLVAADQYLLEGLKRQCEYTIAQEICLDNIPEMYELADTFNASALRRACTLFVLEHFTKLSSQLWFAKFVKQIIPEIRSYMTDILTRPVEASPPTVV"}},
  "key": {"[1]": {"biological_target": "T1, Armadillo BTB Arabidopsis protein 1 (ABAP1), yeast two-hybrid fusion (Arabidopsis thaliana) (UniProt B7U179)", "T1 sequence": "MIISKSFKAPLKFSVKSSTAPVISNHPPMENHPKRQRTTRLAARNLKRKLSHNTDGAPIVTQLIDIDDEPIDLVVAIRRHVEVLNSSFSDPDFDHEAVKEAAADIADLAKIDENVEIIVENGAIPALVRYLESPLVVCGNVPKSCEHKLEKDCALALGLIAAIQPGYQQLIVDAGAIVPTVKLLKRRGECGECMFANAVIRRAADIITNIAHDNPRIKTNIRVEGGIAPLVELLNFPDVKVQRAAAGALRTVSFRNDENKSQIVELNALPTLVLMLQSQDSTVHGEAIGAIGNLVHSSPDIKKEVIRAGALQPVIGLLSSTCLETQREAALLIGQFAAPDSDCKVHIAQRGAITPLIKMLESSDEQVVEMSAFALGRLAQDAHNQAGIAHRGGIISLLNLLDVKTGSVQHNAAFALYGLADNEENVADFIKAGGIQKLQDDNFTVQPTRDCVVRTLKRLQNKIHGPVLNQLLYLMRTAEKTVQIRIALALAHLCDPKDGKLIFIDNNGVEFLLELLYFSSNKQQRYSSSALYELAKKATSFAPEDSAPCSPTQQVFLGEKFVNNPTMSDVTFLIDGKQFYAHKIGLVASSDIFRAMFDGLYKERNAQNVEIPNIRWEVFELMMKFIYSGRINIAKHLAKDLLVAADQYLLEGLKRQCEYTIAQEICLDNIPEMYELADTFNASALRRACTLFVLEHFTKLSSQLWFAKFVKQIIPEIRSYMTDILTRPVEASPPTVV", "experiment": "two-hybrid; yeast; pairs cloned in both AD and DBD vectors; growth on SD medium lacking leucine, tryptophan, histidine and adenine (selection of strong interactions); empty vectors as negative controls"}, "[2]": {"biological_target": "T2, Armadillo BTB Arabidopsis protein 1 (ABAP1), GST fusion (Arabidopsis thaliana) (UniProt B7U179)", "T2 sequence": "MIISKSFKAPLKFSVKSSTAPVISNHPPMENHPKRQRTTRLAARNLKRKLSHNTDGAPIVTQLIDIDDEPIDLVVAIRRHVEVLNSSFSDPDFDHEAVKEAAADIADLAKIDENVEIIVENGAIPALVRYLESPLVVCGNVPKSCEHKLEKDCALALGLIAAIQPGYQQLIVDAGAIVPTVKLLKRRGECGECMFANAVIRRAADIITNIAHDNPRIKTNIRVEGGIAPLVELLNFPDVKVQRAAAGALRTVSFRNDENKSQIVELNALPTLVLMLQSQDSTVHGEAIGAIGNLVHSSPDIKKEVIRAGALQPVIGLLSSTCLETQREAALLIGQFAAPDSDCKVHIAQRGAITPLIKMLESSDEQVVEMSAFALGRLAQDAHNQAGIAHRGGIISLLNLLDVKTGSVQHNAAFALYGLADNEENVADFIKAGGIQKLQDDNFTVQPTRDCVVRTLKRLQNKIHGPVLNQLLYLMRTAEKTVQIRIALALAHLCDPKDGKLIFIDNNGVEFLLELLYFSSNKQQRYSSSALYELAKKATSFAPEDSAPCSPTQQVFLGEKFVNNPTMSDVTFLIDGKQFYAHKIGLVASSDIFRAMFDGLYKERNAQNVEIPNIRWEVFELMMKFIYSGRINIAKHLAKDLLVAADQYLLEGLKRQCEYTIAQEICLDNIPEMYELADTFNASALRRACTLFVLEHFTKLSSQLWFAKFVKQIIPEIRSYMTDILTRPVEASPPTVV", "experiment": "pull-down; GST pull-down; ABAP1-GST or GST alone as bait, HIS-tagged protein as prey, both produced in E. coli; Western blot with anti-HIS antibody"}, "[3]": {"biological_target": "ARIA-interacting double AP2-domain protein (ADAP) / WRINKLED3 (WRI3), HIS fusion (Arabidopsis thaliana) (UniProt Q94AN4)", "experiment": "pull-down; semi in vivo HIS pull-down; HIS-fused protein added to Arabidopsis (flower bud) protein extract, purified on a nickel column, ABAP1 detected with anti-ABAP1 antibody"}, "[4]": {"biological_target": "T3, TCP16, HIS fusion (Arabidopsis thaliana) (UniProt Q9M1U4)", "T3 sequence": "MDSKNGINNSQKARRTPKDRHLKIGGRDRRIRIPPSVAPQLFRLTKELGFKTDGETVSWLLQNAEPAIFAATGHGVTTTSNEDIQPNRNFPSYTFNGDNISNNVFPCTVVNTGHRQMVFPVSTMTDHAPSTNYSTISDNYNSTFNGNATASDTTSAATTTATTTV", "experiment": "pull-down; semi in vivo HIS pull-down; HIS-fused protein added to Arabidopsis (flower bud) protein extract, purified on a nickel column, ABAP1 detected with anti-ABAP1 antibody"}, "[5]": {"biological_target": "ARIA-interacting double AP2-domain protein (ADAP) / WRINKLED3 (WRI3), HIS fusion (Arabidopsis thaliana) (UniProt Q94AN4)", "experiment": "native gel or EMSA; EMSA with radiolabeled promoter probe; ABAP1 added to the transcription factor on its DNA probe gives a supershift; ABAP1 alone and GST alone do not bind the probe"}, "[6]": {"biological_target": "T3, TCP16, HIS fusion (Arabidopsis thaliana)", "experiment": "native gel or EMSA; EMSA with radiolabeled promoter probe; ABAP1 added to the transcription factor on its DNA probe gives a supershift; ABAP1 alone and GST alone do not bind the probe"}},
  "note": "Results are given in words; binding and its absence hold for the method and conditions named. For part of these data: Binding seen in cells or lysates may run through a third protein. Some binding calls cover weakened binding; strength is not graded here. For part of these data: Sequences can lack the tags named with a protein.",
  "data": [
    {"binder": "B1", "values": [
      {"measurement": "binding", "setting": "[1]", "result": "binds"}
    ]},
    {"binder": "B2", "values": [
      {"measurement": "binding", "setting": "[2]", "result": "binds"}
    ]},
    {"binder": "B3", "values": [
      {"measurement": "binding", "setting": "[3]", "result": "binds"},
      {"measurement": "binding", "setting": "[4]", "result": "binds"}
    ]},
    {"binder": "B4", "values": [
      {"measurement": "binding", "setting": "[5]", "result": "binds"},
      {"measurement": "binding", "setting": "[6]", "result": "binds"}
    ]}
  ]
}
